Measurements taken from publication PMC4742757, “The Prodomain-bound Form of Bone Morphogenetic Protein 10 Is Biologically Active on Endothelial Cells*” (The Journal of Biological Chemistry, 2015).
Results are given in words; binding and its absence hold for the method and conditions named. A result given as binding can be weak or reduced; the word gives no strength.

Biological target: T1, BMP10 growth factor domain secreted from mouse right atrium (mouse (endogenous in right atrium)) (UniProt Q9R229)
T1 sequence: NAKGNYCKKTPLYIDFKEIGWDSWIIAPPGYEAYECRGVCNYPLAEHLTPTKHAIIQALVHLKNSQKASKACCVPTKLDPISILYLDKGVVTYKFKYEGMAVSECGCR
Assay: ELISA; sandwich ELISA on undiluted Superdex 200 fractions (PBS) of mouse right atrium conditioned medium: capture by coated anti-BMP10 monoclonal antibody, detection by biotinylated anti-BMP10 propeptide antibody

binding: binds
Substance: BMP10 prodomain secreted from mouse right atrium (domain or fragment)
